Assay results taken from publication PMC6622005.

By UniProt entry, the sequences of proteins in these tests, tags left out.
UniProt O95758: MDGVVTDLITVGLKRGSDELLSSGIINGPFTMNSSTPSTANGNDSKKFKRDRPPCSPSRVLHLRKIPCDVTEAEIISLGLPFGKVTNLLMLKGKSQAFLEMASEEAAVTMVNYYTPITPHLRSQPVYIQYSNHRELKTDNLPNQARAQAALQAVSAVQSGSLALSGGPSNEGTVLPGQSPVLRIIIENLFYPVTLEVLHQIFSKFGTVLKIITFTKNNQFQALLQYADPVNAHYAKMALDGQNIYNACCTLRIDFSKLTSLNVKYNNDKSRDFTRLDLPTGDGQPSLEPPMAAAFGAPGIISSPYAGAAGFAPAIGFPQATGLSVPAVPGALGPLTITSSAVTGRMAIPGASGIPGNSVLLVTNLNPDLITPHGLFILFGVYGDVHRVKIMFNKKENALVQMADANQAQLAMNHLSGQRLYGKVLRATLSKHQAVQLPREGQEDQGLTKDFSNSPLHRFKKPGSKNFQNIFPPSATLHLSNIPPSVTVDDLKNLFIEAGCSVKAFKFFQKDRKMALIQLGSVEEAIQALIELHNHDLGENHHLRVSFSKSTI
UniProt P67809: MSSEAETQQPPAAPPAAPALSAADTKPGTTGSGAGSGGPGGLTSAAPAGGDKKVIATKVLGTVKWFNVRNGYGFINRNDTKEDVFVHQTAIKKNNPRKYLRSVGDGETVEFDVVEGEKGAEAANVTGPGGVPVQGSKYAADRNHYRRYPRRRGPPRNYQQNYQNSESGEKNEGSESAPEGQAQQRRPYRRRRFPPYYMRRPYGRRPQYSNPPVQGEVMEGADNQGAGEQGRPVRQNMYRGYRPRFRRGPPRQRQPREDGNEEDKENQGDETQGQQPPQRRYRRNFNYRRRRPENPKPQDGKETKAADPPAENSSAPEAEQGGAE

B1: UPF1 (protein, UniProt Q92900 1-1129)
chain: MSVEAYGPSSQTLTFLDTEEAELLGADTQGSEFEFTDFTLPSQTQTPPGGPGGPGGGGAGGPGGAGAGAAAGQLDAQVGPEGILQNGAVDDSVAKTSQLLAELNFEEDEEDTYYTKDLPIHACSYCGIHDPACVVYCNTSKKWFCNGRGNTSGSHIVNHLVRAKCKEVTLHKDGPLGETVLECYNCGCRNVFLLGFIPAKADSVVVLLCRQPCASQSSLKDINWDSSQWQPLIQDRCFLSWLVKIPSEQEQLRARQITAQQINKLEELWKENPSATLEDLEKPGVDEEPQHVLLRYEDAYQYQNIFGPLVKLEADYDKKLKESQTQDNITVRWDLGLNKKRIAYFTLPKTDSGNEDLVIIWLRDMRLMQGDEICLRYKGDLAPLWKGIGHVIKVPDNYGDEIAIELRSSVGAPVEVTHNFQVDFVWKSTSFDRMQSALKTFAVDETSVSGYIYHKLLGHEVEDVIIKCQLPKRFTAQGLPDLNHSQVYAVKTVLQRPLSLIQGPPGTGKTVTSATIVYHLARQGNGPVLVCAPSNIAVDQLTEKIHQTGLKVVRLCAKSREAIDSPVSFLALHNQIRNMDSMPELQKLQQLKDETGELSSADEKRYRALKRTAERELLMNADVICCTCVGAGDPRLAKMQFRSILIDESTQATEPECMVPVVLGAKQLILVGDHCQLGPVVMCKKAAKAGLSQSLFERLVVLGIRPIRLQVQYRMHPALSAFPSNIFYEGSLQNGVTAADRVKKGFDFQWPQPDKPMFFYVTQGQEEIASSGTSYLNRTEAANVEKITTKLLKAGAKPDQIGIITPYEGQRSYLVQYMQFSGSLHTKLYQEVEIASVDAFQGREKDFIILSCVRANEHQGIGFLNDPRRLNVALTRARYGVIIVGNPKALSKQPLWNHLLNYYKEQKVLVEGPLNNLRESLMQFSKPRKLVNTINPGARFMTTAMYDAREAIIPGSVYDRSSQGRPSSMYFQTHDQIGMISAGPSHVAAMNIPIPFNLVMPPMPPPGYFGQANGPAAGRGTPKGKTGRGGRQKNRFGLPGPSQTNLPNSQASQDVASQPFSQGALTQGYISMSQPSQMSQPGLSQPELSQDSYLGDEFKSQIDVALSQDSTYQGERAYQHGGVTGLSQY
B2: HNRNPM (protein, UniProt P52272 1-730)
chain: MAAGVEAAAEVAATEIKMEEESGAPGVPSGNGAPGPKGEGERPAQNEKRKEKNIKRGGNRFEPYANPTKRYRAFITNIPFDVKWQSLKDLVKEKVGEVTYVELLMDAEGKSRGCAVVEFKMEESMKKAAEVLNKHSLSGRPLKVKEDPDGEHARRAMQKVMATTGGMGMGPGGPGMITIPPSILNNPNIPNEIIHALQAGRLGSTVFVANLDYKVGWKKLKEVFSMAGVVVRADILEDKDGKSRGIGTVTFEQSIEAVQAISMFNGQLLFDRPMHVKMDERALPKGDFFPPERPQQLPHGLGGIGMGLGPGGQPIDANHLNKGIGMGNIGPAGMGMEGIGFGINKMGGMEGPFGGGMENMGRFGSGMNMGRINEILSNALKRGEIIAKQGGGGGGGSVPGIERMGPGIDRLGGAGMERMGAGLGHGMDRVGSEIERMGLVMDRMGSVERMGSGIERMGPLGLDHMASSIERMGQTMERIGSGVERMGAGMGFGLERMAAPIDRVGQTIERMGSGVERMGPAIERMGLSMERMVPAGMGAGLERMGPVMDRMATGLERMGANNLERMGLERMGANSLERMGLERMGANSLERMGPAMGPALGAGIERMGLAMGGGGGASFDRAIEMERGNFGGSFAGSFGGAGGHAPGVARKACQIFVRNLPFDFTWKMLKDKFNECGHVLYADIKMENGKSKGCGVVKFESPEVAERACRMMNGMKLSGREIDVRIDRNA

Target: Polypyrimidine tract-binding protein 3 (PTBP3), Flag-tagged (human) (UniProt O95758)
Experiment: affinity purification with mass spectrometry; Flag-tag pull-down of PTBP3 followed by LC-MS; cell line and conditions not stated

| binding | Molecule |
| --- | --- |
| binds | YBX1 (from UniProt P67809 1-324) |
| binds | B1 |
| binds | B2 |

No constants are given. Whether binding was seen depends on the method and setting. Binding seen in cells or lysates may run through a third protein. Here binding means that the protein was enriched with, or labelled near, the bait; the list need not be complete.
